Source: patent US20250049914A1, “STEROID ACID-PEPTIDE BASED INTRACELLULAR CARGO DELIVERY” (DEFENCE THERAPEUTICS INC., priority 2021, published 2025)
Not every detail of the peptide structures is certain; ends, links or a residue may be inferred. At least one compound was matched to its structure with a doubt left. Where a SMILES comes first, the peptide text is derived from it. The star is where a group is joined. Cholyl = C[C@H](CCC(=O)*)[C@H]1CC[C@H]2[C@@H]3[C@H](O)C[C@@H]4C[C@H](O)CC[C@]4(C)[C@H]3C[C@H](O)[C@]12C

Test system: BMDCs
Experiment: Antigen-presentation assay using the B3Z reporter system, BMDCs
Type: cell-based, mouse
Conditions: OVA mixed with bile acid/peptide/conjugate, molar ratio 4:1
Procedure: Mouse bone marrow derived DCs (BMDCs) were generated by flushing the whole marrow from mouse femurs using RPMI™ 1640 supplemented with 10% fetal bovine serum (FBS), 50 U/mL Penicillin-Streptomycin, 2 mM L-glutamine, 10 mM HEPES, 1% MEM Non-essential Amino Acids, 1 mM Sodium Pyruvate, 0.5 mM beta-mercaptoethanol. Following red blood cell lysis, cells were then cultured in media supplemented with 50 ng/mL murine recombinant GM-CSF. The media was changed on days 2, 4, 6 and 8. On day 9, the media was replaced to include recombinant murine GM-CSF and LPS from Escherichia coli 0111 (1 ng/mL) to stimulate DC maturation. Mature DCs were assessed by flow cytometry for their surface expression of CD3, CD19, NK1.1, CD11c, CD80, CD86, and I-A^b.
Various bile acid-NLS conjugates were screened using the B3Z reporter system. The B3Z cell line is a T-cell hybridoma specific for the H2-K^b-[…] complex. Once activated via its TCR, the LacZ reporter gene (under the NFAT promoter control) is expressed. […] After a 5- or 24-h incubation at 37° C., absorbance was taken at 570 nm with 636 nm as the reference wavelength. […]
Further variants of CA-SV40NLS were synthesized in which the SV40NLS peptide was replaced with peptides comprising other NLS's (Table 5) and the antigen presentation activities of the CA-NLS peptide conjugates were evaluated using the B3Z reporter system as described in Example 1. […]

Row | SMILES | antigen cross-presentation of OVA (B3Z response) vs OVA alone
1 | C[C@H](CCC(=O)O)[C@H]1CC[C@H]2[C@@H]3CC[C@@H]4C[C@H](O)CC[C@]4(C)[C@H]3CC[C@]12C [LCA] | comparable or higher
2 | CC(C)[C@H](NC(=O)[C@H](CCCCN)NC(=O)[C@H](CCCNC(=N)N)NC(=O)[C@H](CCCCN)NC(=O)[C@H](CCCCN)NC(=O)[C@H](CCCCN)NC(=O)[C@@H]1CCCN1C(=O)CNC(=O)[C@H](Cc1ccc(O)cc1)NC(=O)CNC(=O)[C@H](CS)NC(=O)CC[C@@H](C)[C@H]1CC[C@H]2[C@@H]3[C@H](O)C[C@@H]4C[C@H](O)CC[C@]4(C)[C@H]3C[C@H](O)[C@]12C)C(=O)NCC(=O)NCC(=O)O [CA-SV40] (Cholyl-CGYGPKKKRKVGG-OH) | increased antigen cross-presentation
